Source: PubChem BioAssay AID595 (National Center for Advancing Translational Sciences (NCATS), 2007)
In all, about 71,000 compounds went through this assay and about 310 (0.44%) were called active. This list was built around the results that the source calls inconclusive (neither active nor inactive); the mix of calls is not that of the screen. The call rests on the fitted dose curve; in most records, active means well fitted curve in either direction with a large enough effect; inconclusive means small, poorly fitted or top-dose-only effect, or another doubt; inactive means flat fitted curve, though single readings scatter. Where the call is inconclusive, the potency comes from a doubtful curve fit.

Tested on: Hsp90 C-terminal peptide / TPR2A (Hop) interaction, human
Experiment: qHTS Assay for Disrupters of an Hsp90 Co-Chaperone Interaction
Conditions: AlphaScreen TPR2A-His6 binding biotin-Hsp90 C-terminal peptide
[1] = activity change, negative = inhibition: at 57 µM (top of the series) unless noted
On the % scale 0 is the no-effect control and ±100 the full control effect; potency means the concentration at half of the fitted maximal effect.

With `CC(=O)[C@@H]1[C@H]2[C@@H](C(=O)[C@H]3OC[C@H]2O3)[C@@H]2C=Cc3ccccc3N12` the Potency [1] was inconclusive: 31.6 µM [inhibitor, partial curve].
With `CC1CC(C)CN(c2oc(-c3ccco3)nc2C#N)C1` (centres undefined) the Potency [1] was inconclusive: 20 µM [inhibitor, partial curve].
With `CCCCN1C(=O)C(NC(C)=O)c2ccccc21` (centres undefined) the activity change, negative = inhibition [1] was inconclusive: 38.9%.
For `Cc1cc(-n2c(C)cc(C(=O)CSc3nnc4sc5ccccc5n34)c2C)no1`, the activity change, negative = inhibition [1] was “inactive”.
For `CCOC(=O)CCCCC(=O)c1[nH]c(=O)[nH]c1CSc1nc(-c2ccccc2)c(C#N)c(=O)[nH]1`, the Potency [1] was inconclusive: 12.6 µM [inhibitor, partial curve].
In the case of `COc1ccc(N2CCN(C(=O)C(Cc3ccccc3)n3cccc3)CC2)cc1` (centres undefined), the Potency [1] is reported as inconclusive: 25.1 µM [inhibitor, single point].
With `O=C(CCCn1c(=S)[nH]c2cc3c(cc2c1=O)OCO3)N1CCN(c2ccc(Cl)cc2)CC1` the activity change, negative = inhibition [1] was inconclusive: 38.6%.
With `Cc1cc(S(=O)(=O)N(Cc2ccccc2)Cc2ccc(N(C)C)cc2)ccc1-n1cnnn1` the activity change, negative = inhibition [1] was inconclusive: -31.9%.
With `COCc1nnc(NC(=O)c2ccc(S(=O)(=O)N3CCCCCC3)cc2)o1` the Potency [1] was inconclusive: 39.8 µM [inhibitor, single point].
For `CCc1ccc(CCC(=O)Nc2nnc(C)s2)o1`, the activity change, negative = inhibition [1] was inconclusive: 44.6%.
For `CCCCOc1ccccc1Cn1c(=O)oc2ccc(C)cc21`, the Potency [1] was inconclusive: 31.6 µM [activator, single point].
With `Cc1cccc2[nH]c3c(=O)n(CCN4CCNCC4)cnc3c12` the activity change, negative = inhibition [1] was inconclusive: 45.7%.
With `NC[C@@H]1O[C@H](C23CC4CC(CC(C4)C2)C3)Cc2c1ccc(O)c2O` the Potency [1] was inconclusive: 20 µM [inhibitor, partial curve].
`CCC(=O)Nc1cc(NC(=O)CSc2ncc(-c3ccc(F)cc3)n2Cc2ccco2)ccc1C` was tested, and the Potency [1] was inconclusive: 31.6 µM [inhibitor, single point].
In the case of `CCN(CC)c1ccc(-c2nn3c(-c4ccccc4OC)nnc3s2)cc1`, the Potency [1] is reported as inconclusive: 25.1 µM [activator, single point].
With `COc1ccc(N2CCN(C(=O)c3cn(C4CCCC4)c(=O)c4c3c3ccccc3n4C)CC2)cc1` the Potency [1] was inconclusive: 25.1 µM [inhibitor, partial curve].
For `Cn1c(SCC(=O)c2cc3ccccc3o2)nnc1-c1ccccc1`, the activity change, negative = inhibition [1] was “inactive”.
`O=C(OCC#CCSc1nnc(-c2cccc3ccccc23)o1)c1cccs1` was tested, and the Potency [1] was inconclusive: 31.6 µM [activator, single point].
For `O=C(c1cnn2c(C(F)(F)F)cc(-c3ccc4c(c3)OCO4)nc12)N1CCCCC1`, the activity change, negative = inhibition [1] was “inactive”.
With `CC(=O)OCC(=O)[C@]12OC(C)(C)O[C@@H]1C[C@H]1[C@H]3CC=C4C[C@@H](O)CC[C@]4(C)[C@H]3CC[C@]12C` the activity change, negative = inhibition [1] was inconclusive: 80.9% [at 11 µM].
In the case of `FC(F)(F)c1ccccc1-c1nc(N2CCOCC2)c2ccccc2n1`, the activity change, negative = inhibition [1] is reported as “inactive”.
`COc1ccccc1Nc1nc2ccccc2[nH]1` was tested, and the activity change, negative = inhibition [1] was “inactive”.
`CCCOC(=O)c1ccc(Oc2cn[nH]c2-c2ccc(OC)cc2O)cc1` was tested, and the activity change, negative = inhibition [1] was “inactive”.
With `CSCSC1=C(C#N)C(c2ccc(Cl)cc2)C(C(C)=O)=C(C)N1` (centres undefined) the Potency [1] was inconclusive: 25.1 µM [activator, single point].
In the case of `CC1(C)CC(=O)C2=C(C1)NC(Nc1nc3ccccc3o1)=NC21CCCCC1`, the activity change, negative = inhibition [1] is reported as inconclusive: 50.7%.
`N#Cc1c(/N=C/c2cccs2)sc2c1CCCCC2` was tested, and the Potency [1] was inconclusive: 15.8 µM [inhibitor, partial curve].
With `COc1ncc2nc(CCc3ccccc3)c(=O)n(Cc3ccc(F)cc3)c2n1` the Potency [1] was inconclusive: 39.8 µM [activator, single point].
`O=C(Cc1nc2ccccc2s1)c1ccc(O)cc1O` was tested, and the activity change, negative = inhibition [1] was “inactive”.
`CN1CCN(c2ncc3nc(-c4cn(C)c5ccccc45)c(=O)n(CCC#N)c3n2)CC1` was tested, and the Potency [1] was inconclusive: 12.6 µM [activator, partial curve].
With `COc1ccc(C)cc1NC(=O)CSc1nnc(-c2ccc(C)cc2)o1` the activity change, negative = inhibition [1] was inconclusive: 47%.
With `CN1CCN(c2ccnc(-c3ccccc3C(F)(F)F)n2)CC1` the activity change, negative = inhibition [1] was “inactive”.
For `CC(=O)c1coc2ccc(OCCN3CCCCC3)cc12`, the activity change, negative = inhibition [1] was inconclusive: 35.5%.
For `O=c1[nH]c2[nH]c(=S)[nH]c(=S)c2[nH]1`, the activity change, negative = inhibition [1] was inactive: -1.56% [at 11 µM].
With `O=C(O)C1CCCCC1C(=O)Nc1ccc(Cl)cc1Cl` (centres undefined) the activity change, negative = inhibition [1] was inconclusive: 41.9%.
For `c1coc(CNc2c3c(nc4ncnn24)CCCC3)c1`, the activity change, negative = inhibition [1] was inconclusive: 43.9%.
In the case of `COc1ccc(-c2cnc(SCC(=O)Nc3ccc4c(c3)OCO4)n2Cc2ccco2)cc1`, the Potency [1] is reported as inconclusive: 25.1 µM [inhibitor, partial curve].
In the case of `Cn1c(CNc2ccccc2O)nc2ccccc21`, the Potency [1] is reported as inconclusive: 20 µM [inhibitor, partial curve].
In the case of `COc1ccc(-c2cc3nc4c(c(=O)n3[nH]2)CCC4)cc1`, the activity change, negative = inhibition [1] is reported as inconclusive: 46.9%.
For `CCOC(=O)c1c(-c2ccccc2)csc1NC(=O)CSc1nnnn1C`, the activity change, negative = inhibition [1] was inconclusive: 51.1%.
In the case of `CC1=NS(=O)(=O)c2cc(Cl)ccc2N1`, the activity change, negative = inhibition [1] is reported as inconclusive: 69.7%.
`Cc1cccc(N2CCN(S(=O)(=O)c3ccc4c(c3)CCC(=O)N4)CC2C)c1` (centres undefined) was tested, and the activity change, negative = inhibition [1] was inconclusive: 53.4%.
In the case of `CC(=O)NC(c1ccco1)c1ccc2cccnc2c1O` (centres undefined), the Potency [1] is reported as active: 7.94 µM.
In the case of `CCn1ncc(NC(=O)Nc2cccc(C(F)(F)F)c2)c1C(N)=O`, the activity change, negative = inhibition [1] is reported as inconclusive: 40.2%.
In the case of `CC1Oc2ccccc2N(Cc2ccccc2Cl)C1=O` (centres undefined), the activity change, negative = inhibition [1] is reported as inconclusive: 35.8%.
In the case of `Nn1c(CSc2nc3ccccc3o2)nnc1CSc1nc2ccccc2o1`, the activity change, negative = inhibition [1] is reported as “inactive”.
`CCC(c1nnc(SCC(=O)Nc2nnc(-c3ccccc3)o2)n1Cc1ccccc1)N(C)C` (centres undefined) was tested, and the Potency [1] was inconclusive: 31.6 µM [inhibitor, single point].
In the case of `N#Cc1nc(Cc2ccccc2)oc1N1CCN(c2cccc(Cl)c2)CC1`, the Potency [1] is reported as inconclusive: 25.1 µM [inhibitor, partial curve].
In the case of `O=c1[nH][nH]c(=O)c2cc([N+](=O)[O-])ccc12`, the activity change, negative = inhibition [1] is reported as inconclusive: 50%.
For `CC1CCN(C(=O)CSc2nc3ccccc3[nH]2)CC1`, the activity change, negative = inhibition [1] was “inactive”.
`Cc1cc2c(c(SCC(=O)N(C)c3ccccc3)n1)C(=O)OC2` was tested, and the activity change, negative = inhibition [1] was inconclusive: 48.4%.
For `NCCCCCC(=O)O`, the activity change, negative = inhibition (at 26 µM (top of the series)) was inconclusive: 51.3% and the activity change, negative = inhibition (at 57 µM (top of the series)) was inconclusive: 68.5%.
With `Cc1ccc(S(=O)(=O)N2Cc3ccccc3CC2C(=O)Nc2cc(C)on2)cc1` (centres undefined) the activity change, negative = inhibition [1] was “inactive”.
With `Cc1c(Cl)cccc1Nc1nc(N)nc(CSCCO)n1` the activity change, negative = inhibition [1] was inconclusive: 31.8%.
For `Cn1c(=O)c2c(nc(/C=C\c3cccc(Cl)c3)n2C)n(C)c1=O`, the activity change, negative = inhibition [1] was “inactive”.
In the case of `Cc1cccc(N2CCN(C(=O)CCn3c(=S)[nH]c4cc5c(cc4c3=O)OCO5)CC2C)c1` (centres undefined), the activity change, negative = inhibition [1] is reported as inconclusive: 38.3%.
In the case of `NC(N)=Nc1ccc(-c2ccc(N=C(N)N)cc2)cc1`, the activity change, negative = inhibition [1] is reported as inactive: 0.275% [at 11 µM].
For `Cn1c(NCc2ccco2)nc2ccccc21`, the activity change, negative = inhibition [1] was “inactive”.
For `COc1ccc(-c2nc3cnc(N4CCN(C)CC4)nc3n(Cc3cccc(OC)c3)c2=O)cc1`, the Potency [1] was inconclusive: 7.94 µM [activator, partial curve].
`COc1ccc(C2C(C(=O)NCCN3CCOCC3)c3ccccc3C(=O)N2C2CCCCC2)cc1` (centres undefined) was tested, and the activity change, negative = inhibition [1] was “inactive”.
In the case of `COC(=O)c1[nH]c2ccc(Cl)cc2c1NC(=O)CN1CCC(C(N)=O)CC1`, the activity change, negative = inhibition [1] is reported as “inactive”.
With `CCOC(=O)C1CCCN(Cc2ccc(OC)cc2OC)C1` (centres undefined) the activity change, negative = inhibition [1] was inconclusive: 42.9%.
`COCCNc1ccnc(-c2ccccc2C(F)(F)F)n1` was tested, and the activity change, negative = inhibition [1] was “inactive”.
In the case of `CCn1cc(C(=O)NCc2ccccn2)c(=O)c2cc(S(=O)(=O)N3CCCCC3)ccc21`, the activity change, negative = inhibition [1] is reported as inconclusive: -2.02%.
With `COC(=O)c1ccc(Nc2cc(C)nc3ncnn23)cc1` the activity change, negative = inhibition [1] was inconclusive: 42.1%.
In the case of `CN(C)c1cccc(C(=O)Nc2cccc(F)c2)c1`, the activity change, negative = inhibition [1] is reported as “inactive”.
`COc1ccc(C(=O)COC(=O)CN2CC(=O)Oc3ccccc32)cc1Br` was tested, and the Potency [1] was active: 6.31 µM.
`O=C(c1nc2n(n1)C(c1ccc(Cl)cc1)C=C(c1ccccc1)N2)N1CCOCC1` (centres undefined) was tested, and the activity change, negative = inhibition [1] was “inactive”.
For `O=c1c(-c2cccs2)nc2cnc(Oc3ccccc3)nc2n1Cc1cccs1`, the Potency [1] was inconclusive: 3.16 µM [activator, single point].
With `COc1ccc(-c2cnc(SCC(=O)Nc3cc(C)on3)n2Cc2ccco2)cc1` the Potency [1] was inconclusive: 31.6 µM [inhibitor, partial curve].
For `Cc1c(C(=O)NC(C)c2ccncc2)oc2ccccc12` (centres undefined), the activity change, negative = inhibition [1] was inconclusive: 31.1%.
`Cc1nc2cc(NC(=O)Nc3nccs3)ccc2n1C` was tested, and the activity change, negative = inhibition [1] was “inactive”.
In the case of `Cc1cccc(NC(=O)C2CCCN2C(=O)OCC(C)C)c1C` (centres undefined), the activity change, negative = inhibition [1] is reported as inconclusive: 85.7%.
For `CCCCOCCCNC(=O)c1cccs1`, the activity change, negative = inhibition [1] was inconclusive: 59.6% [at 11 µM].
For `N#Cc1ccc(CN2CCC3(CC2)CCN(S(=O)(=O)c2ccccc2)CC3)cc1`, the activity change, negative = inhibition [1] was inconclusive: 58.2%.
`O=C1c2ccccc2C(=O)N1Cc1ccco1` was tested, and the activity change, negative = inhibition [1] was “inactive”.
In the case of `CCOc1ccc2nc(NCCCNS(=O)(=O)c3ccccc3)c(C#N)cc2c1`, the activity change, negative = inhibition [1] is reported as inconclusive: 96%.
`O=C1CC(N2CCN(c3ccccc3Cl)CC2)C(=O)N1c1cccc(F)c1` (centres undefined) was tested, and the activity change, negative = inhibition [1] was inconclusive: 42%.
`CCOC1(OCC)N=C(N)C2(C#N)C(c3ccc(NC(C)=O)cc3)C12C#N` (centres undefined) was tested, and the Potency [1] was inconclusive: 31.6 µM [inhibitor, single point].
`O=C(CCNS(=O)(=O)c1cccc2nsnc12)N1CCc2ccccc21` was tested, and the activity change, negative = inhibition [1] was inconclusive: 37.9%.
In the case of `CSC(=N)N`, the activity change, negative = inhibition [1] is reported as “inactive”.
For `CN(C)Cc1ccccc1-c1nc(N(C)Cc2ccco2)c2ccccc2n1`, the activity change, negative = inhibition [1] was “inactive”.
With `COC(=O)c1nc2cc(C)ccn2c1F` the activity change, negative = inhibition [1] was “inactive”.
In the case of `Nc1nc(SCc2ccccc2Cl)cc(C(=O)O)n1`, the Potency [1] is reported as inconclusive: 3.98 µM [inhibitor, single point].
